For some of these results: HELM strings list residues between dots; [ac] is acetyl, [am] amide, other brackets name non-standard units.
Tests used:
[1] = general procedure: Fmoc solid-phase peptide synthesis; Fmoc-Glu(OtBu)-preloaded Wang resin; HOAt / HATU, DIPEA (Sulfo-Cy5 conjugation in solution); settings: whole synthesis, scale 0.33 mmol
[2] = general procedure: Fmoc solid-phase peptide synthesis; Fmoc-Glu(OtBu)-preloaded Wang resin; 2-CTC resin; HOAt / HATU, DIPEA (Sulfo-Cy5 conjugation in solution); settings: conjugation step

Substance	final HPLC purity ([1]; HPLC)	isolated mass [1]	final HPLC purity ([2]; HPLC)	conjugation yield ([2]; based on starting peptide)
Ac-mas3-k-y-nal-k-Sub-KuE	>95%	10.3 mg	–	–
PEPTIDE1{[AcSCH2CO].[dS].[dS].[dS].[dK].[dY].[D-2Nal].[dK]}|CHEM1{[SulfoCy5]}|CHEM2{[Sub-KuE]}$PEPTIDE1,CHEM1,5:R3-1:R2|PEPTIDE1,CHEM2,8:R3-1:R2$$$V2.0	–	–	>95%	12%
